Measured values: PubChem BioAssay AID485298 (National Center for Advancing Translational Sciences (NCATS), 2010)
In all, about 320,000 compounds went through this assay and about 740 (0.23%) were called active. Inconclusive means that the source gave no clear call. Such entries were picked first, then a sample of the others. The call rests on the fitted dose curve; in most records, active means well fitted activation curve with a large enough effect; inconclusive means small, poorly fitted or top-dose-only effect; inactive means no such curve, though single readings can be large or run the other way. Potencies beside an inconclusive call are fits to weak or partial responses and may not hold up.

Assay: qHTS Assay for Small Molecule Inhibitors of Mitochondrial Division or Activators of Mitochondrial Fusion; further: nearly all actives have a fitted effect of over 45% in size
Details: S. cerevisiae fusion-defective mutant growth rescue, CellTiterGlo 48 h; series mostly up to 46.1 µM
Text: NIH Chemical Genomics Center [NCGC] NIH Molecular Libraries Probe Production centers Network [MLPCN] MLPCN Grant: MH081279-01 Assay Submitter (PI): Jodi M. Nunnari NCGC Assay Overview: The budding yeast S. cerevisiae is a powerful system to study mitochondrial fusion. Unlike other organisms, yeast cells without functional mitochondrial DNA (mtDNA) can be propagated and studied as long as they maintain a mitochondrial compartment and are provided with a fermentable carbon source. When mitochondrial fusion is blocked in yeast, mitochondrial tubules rapidly fragment and division continues unopposed. Under conditions where fusion is compromised in mammalian cells, nearly identical changes in mitochondrial structure have been observed. Thus, these findings indicate that steady state mitochondrial structure in cells is a characteristic and specific indicator of fusion activity. Mounting evidence has pointed to a connection between mitochondrial dynamics and apoptosis in mammalian cells. These studies indicate that in mammalian cells mitochondrial dynamics are more integrated into cellular processes than in yeast cells and have evolved not only to distribute the organelle but also to aid in the regulation of cellular homeostasis. Mitochondrial fusion proteins attenuate apoptosis by inhibiting the release of cytochrome c from mitochondria, in part by controlling cristae structures. Thus, small molecules that inhibit mitochondrial […] may promote apoptosis and potentially act as novel chemotherapeutics and stimulation of apoptosis has become an attractive target of anti-cancer therapies. To identify inhibitors of mitochondrial division, we exploit the growth phenotypes of mitochondrial fusion-defective mutants. The temperature sensitive fusion alleles, such as fzo1-1 and mgm1-5, cause mitochondrial membranes to fragment in cells under non-permissive conditions and cells lose mtDNA, and are unable to grow in the presence of non-fermentable carbon source glycerol. Inhibiting mitochondrial division rescues growth. We have developed and optimized a luminescence cell viability assay in 1536 well format for the identification of inhibitors in the yeast mitochondrial fusion-defective assay.
The yeast glycerol stocks where kindly supplied by the laboratory of Dr. Jodi Nunnari, University of California, Davis. All yeast glycerol stock solutions were stored in single use aliquots at -80C. The CellTiterGlo luminescence reagent, containing luciferase and luciferin, were purchased from Promega, and the reagents were stored according to manufacturer's instructions. The Buffer components for the YPEG yeast growth medium were purchased from Sigma-Aldrich (St. Louis, MO). YPEG growth medium: 1% (w/v) yeast extract, 2% (w/v) Bacto-peptone, 3% Ethanol, 3% glycerol, 0.4mM Tryptophan, 0.36mM Adenine. qHTS Assay Protocol: 1.#Dispense 2.5 ul yeast growth medium per 1536 well plate. 2.#Transfer 23 nl per well of compound to plate. 3.#Dispense 2.5 ul yeast solution at appropriate seeding density per well. 4.#Incubate for 48 hours at 37C. 5.#Dispense 5 ul of CellTiterGlow solution per well. 6.#Incubate at ambient for 10 minutes. 7.#Read using bio-luminescence protocol on Viewlux.
Potency means the concentration at half of the fitted maximal effect.

| Structure (SMILES) | Potency |
| --- | --- |
| Cc1ccc(-c2nc(CS(=O)CC(=O)N3CCN(c4ccccc4)CC3)c(C)o2)cc1 (stereo unspecified) | inconclusive: 5.01 µM [activator, full curve, poor fit] |
| Cc1ccc(/C=N/NC(=O)Cn2nnc(N)n2)cc1 | inactive |
| CCCCCCCCCCCCCCC[C@H](O)[C@H](N)CO | inconclusive: 2.59 µM [activator, partial curve] |
| N#C/C(=C/c1ccc(N2CCOCC2)o1)c1ccc(Br)cc1 | inactive |
| CCCNC(=O)CSc1nnc(-c2ccco2)n1C | inactive |
| COc1cccc(-c2cc(=O)c3ccccc3o2)c1N | inconclusive: 18.4 µM [activator, single point] |
| CN(C(=O)C(Cl)Cl)c1ccc(OC(=O)c2ccco2)cc1 | inconclusive: 15.8 µM [activator, single point] |
| CCCCCn1c(CN2CCN(c3cccc(Cl)c3)CC2)nc2c1c(=O)[nH]c(=O)n2C | inconclusive: 35.5 µM [activator, single point] |
| Cc1cc(Nc2cccc(Cl)c2)n2ncnc2n1 | inconclusive: 35.5 µM [activator, single point] |
| C[C@@]12C(=O)Nc3ccccc3C(=O)N1[C@H]1c3cc(Br)ccc3OC[C@@H]1[C@@H]2c1ccccc1 | inconclusive: 11.2 µM [activator, partial curve] |
| C=CCn1cnc2c(c1=O)c1nc3ccccc3nc1n2/N=C/c1ccccn1 | inactive |
| COc1ccc2cc(C(=O)NCc3ccco3)c(=Nc3ccc(C(=O)O)cc3)oc2c1 | inactive |
| Cc1ccc(C)c(S(=O)(=O)NCc2ccncc2)c1 | inactive |
| CC(C)c1ccc(/C=C(\c2nc3ccccc3[nH]2)S(=O)(=O)c2ccccc2)cc1 | inconclusive: 15.8 µM [activator, single point] |
| Cc1nnc(SCC(=O)Nc2cc(-c3cc(C)c(C)cc3C)nn2-c2ccccc2)s1 | inconclusive: 15.8 µM [activator, single point] |
| O=C(NCCO)c1ccc2c3n(nc2c1)-c1ccccc1CO3 | inactive |
| Cc1nn(-c2ccccc2)c(C)c1/C=N/NC(=O)c1cc(-c2cccs2)[nH]n1 | inactive |
| COc1ccc2c(c1)CCc1c(C(=O)Nc3cc(C)n(Cc4ccc(Cl)cc4)n3)noc1-2 | inactive |
| COc1ccc(C(=O)Nc2ccc(SC(F)F)cc2)cc1 | inactive |
| Cc1ccc2nc(N3C(=O)C(O)=C(C(=O)c4ccco4)C3c3ccc(C)o3)sc2c1 (stereo unspecified) | inactive |
| CC(=O)c1cccc(NC(=O)C2C3C=CC(C4CC34)C2C(=O)O)c1 (stereo unspecified) | inactive |
| CC(C)c1cccc(OCCCCN(C)C)c1 | inconclusive: 2.51 µM [activator, partial curve] |
| O=C1NC(c2ccc(Cl)cc2)Nc2ccccc21 (stereo unspecified) | inactive |

| Structure (SMILES) | Potency |
| --- | --- |
| CCCCN(CC)C(=O)c1oc2ccc(S(=O)(=O)N3CCCC3)cc2c1C | inconclusive: 20 µM [activator, partial curve] |
| O=C(c1ccco1)N1CCN(C(=O)N2c3ccccc3Sc3ccccc32)CC1 | inconclusive: 11.2 µM [activator, partial curve] |
| COc1ccccc1NC(=S)NCc1ccc2c(c1)cc(C)n2C | inconclusive: 12.6 µM [activator, single point] |
| O=C(NCCCn1ccnc1)c1nn2c(C(F)(F)F)cc(-c3ccc(Br)cc3)nc2c1Cl | inconclusive: 15.8 µM [activator, single point] |
| Cc1ccc(C23CC4CC(CC(NC(=O)NC(C)(C)CO)(C4)C2)C3)cc1 | inconclusive: 35.5 µM [activator, partial curve] |
| CCOC(=O)c1ccc(Oc2cn[nH]c2-c2ccc(OCC(=O)NN)cc2O)cc1 | inconclusive: 12.6 µM [activator, partial curve] |
| Cc1ccccc1C(=O)Nc1cc(S(=O)(=O)N2CCCCC2)ccc1N1CCN(C)CC1 | inactive |
| CCOC(=O)[C@H]1[C@H]2COc3ccc(Cl)cc3[C@@H]2N2C(=O)c3cc(Br)ccc3NC(=O)[C@@]12C | inconclusive: 11.2 µM [activator, partial curve] |
| COc1ccc(Cn2c(O)c(C=Nc3ccc(O)cc3)c3ccccc3c2=O)cc1 | inconclusive: 7.08 µM [activator, full curve, poor fit] |
| Brc1cccc(C2Nc3cccc4cccc(c34)N2)c1 | inactive |
| COc1ccc(OC)c(NC(=O)COc2coc(CN3CCc4ccccc43)cc2=O)c1 | inactive |
| Cc1nc(COc2cc3oc(=O)cc(C)c3cc2Cl)cs1 | inactive |
| CCOC(=O)N1CCN(S(=O)(=O)c2ccc(F)c(C(=O)Nc3ccc(C)c(Cl)c3)c2)CC1 | inconclusive: 15.8 µM [activator, single point] |
| Clc1ccc(OCc2nn3c(-c4ccco4)nnc3s2)cc1 | inconclusive: 35.5 µM [activator, single point] |
| Brc1ccccc1Cn1c(-c2cscn2)nc2ccccc21 | inconclusive: 14.1 µM [activator, partial curve] |
| Cc1ccc(-c2nn(-c3ccccc3)cc2C2SCC(=O)N2Cc2ccccc2)o1 (stereo unspecified) | inconclusive: 15.8 µM [activator, single point] |
| Cc1ccc(S(=O)(=O)Cn2nnnc2C(C(C)C)N2CCN(c3nc4ccccc4s3)CC2)cc1 (stereo unspecified) | inconclusive: 7.08 µM [activator, partial curve] |
| O=c1c(Cl)c(Nc2cccc(Cl)c2)cnn1-c1nc2ccccc2s1 | inconclusive: 10 µM [activator, partial curve] |
| COC(=O)c1ccc(S(=O)(=O)N2CCCN(Cc3ccccc3)CC2)n1C | inactive |
| O=C(CCc1ccc(O)cc1)c1c(O)cc(O)cc1O | inconclusive: 18.4 µM [activator, single point] |
| Cc1cccc2sc(N3CCN(C(=O)C4COc5ccccc5O4)CC3)nc12 (stereo unspecified) | inconclusive: 35.5 µM [activator, single point] |
| O=C(NCc1ccc(Cl)cc1)c1ccc(Cl)cc1[N+](=O)[O-] | inactive |
| CC(=O)OCC1=C[C@@H]2OC(=O)C3=CO[C@@H](O[C@@H]4O[C@H](CO)[C@@H](O)[C@H](O)[C@H]4O)[C@H]1[C@@H]32 | inactive |

Structures shown so far with a COOH group:

| Structure (SMILES) | Potency |
| --- | --- |
| COc1ccc2cc(C(=O)NCc3ccco3)c(=Nc3ccc(C(=O)O)cc3)oc2c1 | inactive |
| CC(=O)c1cccc(NC(=O)C2C3C=CC(C4CC34)C2C(=O)O)c1 (stereo unspecified) | inactive |
